Results reported in US20250283871A1, “COMPOSITIONS AND METHODS FOR MODULATING THE INTERACTION BETWEEN SS18-SSX FUSION ONCOPROTEIN AND NUCLEOSOMES” (Dana-Farber Cancer Institute, Inc., priority 2020, published 2025).

B1: RRP15 (protein, UniProt Q9Y3B9 2-282, looked up)
RRP15-like protein: AAAAPDSRVSEEENLKKTPKKKMKMVTGAVASVLEDEATDTSDSEGSCGSEKDHFYSDDDAIEADSEGDAEPCDKENENDGESSVGTNMGWADAMAKVLNKKTPESKPTILVKNKKLEKEKEKLKQERLEKIKQRDKRLEWEMMCRVKPDVVQDKETERNLQRIATRGVVQLFNAVQKHQKNVDEKVKEAGSSMRKRAKLISTVSKKDFISVLRGMDGSTNETASSRKKPKAKQTEVKSEEGPGWTILRDDFMMGASMKDWDKESDGPDDSRPESASDSDT
B2: FAM207A (protein)
chain: MGKVRGLRARVHQAAVRPKGEAAPGPAPPAPEATPPPASAAGKDWAFINTNIFARTKIDPSALVQKLELDVRSVTSVRRGEAGSSARSVPSIRRGAEAKTVLPKKEKMKLRREQWLQKIEAIKLAEQKHREERRRRATVVVGDLHPLRDALPELLGLEAGSRRQARSRESNKPRPSELSRMSAAQRQQLLEEERTRFQELLASPAYRASPLVAIGQTLARQMQLEDGGQL
B3: ADNP2 (protein, UniProt Q6IQ32 1-1131, looked up)
Activity-dependent …: MFQIPVENLDNIRKVRKKVKGILVDIGLDSCKELLKDLKGFDPGEKYFHNTSWGDVSLWEPSGKKVRYRTKPYCCGLCKYSTKVLTSFKNHLHRYHEDEIDQELVIPCPNCVFASQPKVVGRHFRMFHAPVRKVQNYTVNILGETKSSRSDVISFTCLKCNFSNTLYYSMKKHVLVAHFHYLINSYFGLRTEEMGEQPKTNDTVSIEKIPPPDKYYCKKCNANASSQDALMYHILTSDIHRDLENKLRSVISEHIKRTGLLKQTHIAPKPAAHLAAPANGSAPSAPAQPPCFHLALPQNSPSPAAGQPVTVAQGAPGSLTHSPPAAGQSHMTLVSSPLPVGQNSLTLQPPAPQPVFLSHGVPLHQSVNPPVLPLSQPVGPVNKSVGTSVLPINQTVRPGVLPLTQPVGPINRPVGPGVLPVSPSVTPGVLQAVSPGVLSVSRAVPSGVLPAGQMTPAGQMTPAGVIPGQTATSGVLPTGQMVQSGVLPVGQTAPSRVLPPGQTAPLRVISAGQVVPSGLLSPNQTVSSSAVVPVNQGVNSGVLQLSQPVVSGVLPVGQPVRPGVLQLNQTVGTNILPVNQPVRPGASQNTTFLTSGSILRQLIPTGKQVNGIPTYTLAPVSVTLPVPPGGLATVAPPQMPIQLLPSGAAAPMAGSMPGMPSPPVLVNAAQSVFVQASSSAADTNQVLKQAKQWKTCPVCNELFPSNVYQVHMEVAHKHSESKSGEKLEPEKLAACAPFLKWMREKTVRCLSCKCLVSEEELIHHLLMHGLGCLFCPCTFHDIKGLSEHSRNRHLGKKKLPMDYSNRGFQLDVDANGNLLFPHLDFITILPKEKLGEREVYLAILAGIHSKSLVPVYVKVRPQAEGTPGSTGKRVSTCPFCFGPFVTTEAYELHLKERHHIMPTVHTVLKSPAFKCIHCCGVYTGNMTLAAIAVHLVRCRSAPKDSSSDLQAQPGFIHNSELLLVSGEVMHDSSFSVKRKLPDGHLGAEDQRHGEEQPPILNADAAPGPEKVTSVVPFKRQRNESRTEGPIVKDEALQILALDPKKYEGRSYEEKKQFLKDYFHKKPYPSKKEIELLSSLFWVWKIDVASFFGKRRYICMKAIKNHKPSVLLGFDMSELKNVKHRLNFEYEP
B4: MFAP1 (protein, UniProt P55081 2-439, looked up)
Microfibrillar-associated …: SVPSALMKQPPIQSTAGAVPVRNEKGEISMEKVKVKRYVSGKRPDYAPMESSDEEDEEFQFIKKAKEQEAEPEEQEEDSSSDPRLRRLQNRISEDVEERLARHRKIVEPEVVGESDSEVEGDAWRMEREDSSEEEEEEIDDEEIERRRGMMRQRAQERKNEEMEVMEVEDEGRSGEESESESEYEEYTDSEDEMEPRLKPVFIRKKDRVTVQEREAEALKQKELEQEAKRMAEERRKYTLKIVEEETKKELEENKRSLAALDALNTDDENDEEEYEAWKVRELKRIKRDREDREALEKEKAEIERMRNLTEEERRAELRANGKVITNKAVKGKYKFLQKYYHRGAFFMDEDEEVYKRDFSAPTLEDHFNKTILPKVMQVKNFGRSGRTKYTHLVDQDTTSFDSAWGQESAQNTKFFKQKAAGVRDVFERPSAKKRKTT
B5: CBX4 (protein, UniProt O00257 1-560, looked up)
E3 SUMO-protein ligase CBX4: MELPAVGEHVFAVESIEKKRIRKGRVEYLVKWRGWSPKYNTWEPEENILDPRLLIAFQNRERQEQLMGYRKRGPKPKPLVVQVPTFARRSNVLTGLQDSSTDNRAKLDLGAQGKGQGHQYELNSKKHHQYQPHSKERAGKPPPPGKSGKYYYQLNSKKHHPYQPDPKMYDLQYQGGHKEAPSPTCPDLGAKSHPPDKWAQGAGAKGYLGAVKPLAGAAGAPGKGSEKGPPNGMMPAPKEAVTGNGIGGKMKIVKNKNKNGRIVIVMSKYMENGMQAVKIKSGEVAEGEARSPSHKKRAADERHPPADRTFKKAAGAEEKKVEAPPKRREEEVSGVSDPQPQDAGSRKLSPTKEAFGEQPLQLTTKPDLLAWDPARNTHPPSHHPHPHPHHHHHHHHHHHHAVGLNLSHVRKRCLSETHGEREPCKKRLTARSISTPTCLGGSPAAERPADLPPAAALPQPEVILLDSDLDEPIDLRCVKTRSEAGEPPSSLQVKPETPASAAVAVAAAAAPTTTAEKPPAEAQDEPAESLSEFKPFFGNIIITDVTANCLTVTFKEYVTV
B6: NUP85 (protein, UniProt Q9BW27 1-656, looked up)
Nuclear pore complex protein …: MEELDGEPTVTLIPGVNSKKNQMYFDWGPGEMLVCETSFNKKEKSEMVPSCPFIYIIRKDVDVYSQILRKLFNESHGIFLGLQRIDEELTGKSRKSQLVRVSKNYRSVIRACMEEMHQVAIAAKDPANGRQFSSQVSILSAMELIWNLCEILFIEVAPAGPLLLHLLDWVRLHVCEVDSLSADVLGSENPSKHDSFWNLVTILVLQGRLDEARQMLSKEADASPASAGICRIMGDLMRTMPILSPGNTQTLTELELKWQHWHEECERYLQDSTFATSPHLESLLKIMLGDEAALLEQKELLSNWYHFLVTRLLYSNPTVKPIDLHYYAQSSLDLFLGGESSPEPLDNILLAAFEFDIHQVIKECSIALSNWWFVAHLTDLLDHCKLLQSHNLYFGSNMREFLLLEYASGLFAHPSLWQLGVDYFDYCPELGRVSLELHIERIPLNTEQKALKVLRICEQRQMTEQVRSICKILAMKAVRNNRLGSALSWSIRAKDAAFATLVSDRFLRDYCERGCFSDLDLIDNLGPAMMLSDRLTFLGKYREFHRMYGEKRFADAASLLLSLMTSRIAPRSFWMTLLTDALPLLEQKQVIFSAEQTYELMRCLEDLTSRRPVHGESDTEQLQDDDIETTKVEMLRLSLARNLARAIIREGSLEGS
B7: MBD3 (protein, UniProt O95983 1-291, looked up)
Methyl-CpG-binding domain …: MERKRWECPALPQGWEREEVPRRSGLSAGHRDVFYYSPSGKKFRSKPQLARYLGGSMDLSTFDFRTGKMLMSKMNKSRQRVRYDSSNQVKGKPDLNTALPVRQTASIFKQPVTKITNHPSNKVKSDPQKAVDQPRQLFWEKKLSGLNAFDIAEELVKTMDLPKGLQGVGPGCTDETLLSAIASALHTSTMPITGQLSAAVEKNPGVWLNTTQPLCKAFMVTDEDIRKQEELVQQVRKRLEEALMADMLAHVEELARDGEAPLDKACAEDDDEEDEEEEEEEPDPDPEMEHV
B8: PRPF38A (protein, UniProt Q8NAV1 1-312, looked up)
Pre-mRNA-splicing factor 38A: MANRTVKDAHSIHGTNPQYLVEKIIRTRIYESKYWKEECFGLTAELVVDKAMELRFVGGVYGGNIKPTPFLCLTLKMLQIQPEKDIIVEFIKNEDFKYVRMLGALYMRLTGTAIDCYKYLEPLYNDYRKIKSQNRNGEFELMHVDEFIDELLHSERVCDIILPRLQKRYVLEEAEQLEPRVSALEEDMDDVESSEEEEEEDEKLERVPSPDHRRRSYRDLDKPRRSPTLRYRRSRSRSPRRRSRSPKRRSPSPRRERHRSKSPRRHRSRSRDRRHRSRSKSPGHHRSHRHRSHSKSPERSKKSHKKSRRGNE
B9: ACTL6B (protein, UniProt O94805 1-426, looked up)
Actin-like protein 6B: MSGGVYGGDEVGALVFDIGSFSVRAGYAGEDCPKADFPTTVGLLAAEEGGGLELEGDKEKKGKIFHIDTNALHVPRDGAEVMSPLKNGMIEDWECFRAILDHTYSKHVKSEPNLHPVLMSEAPWNTRAKREKLTELMFEQYNIPAFFLCKTAVLTAFANGRSTGLVLDSGATHTTAIPVHDGYVLQQGIVKSPLAGDFISMQCRELFQEMAIDIIPPYMIAAKEPVREGAPPNWKKKEKLPQVSKSWHNYMCNEVIQDFQASVLQVSDSPYDEQVAAQMPTVHYEMPNGYNTDYGAERLRIPEGLFDPSNVKGLSGNTMLGVGHVVTTSIGMCDIDIRPGLYGSVIVTGGNTLLQGFTDRLNRELSQKTPPSMRLKLIASNSTMERKFSPWIGGSILASLGTFQQMWISKQEYEEGGKQCVERKCP

What follows are molecules tested on BAF complex subunits and histone proteins (assay: Mass spectrometry proteomics of purified HA-SS18 WT and HA-SS18-SSX1 complexes (Tables 5A-5E)). Conditions: HA-SS18SSX1_CHR_peptides; total peptides of the identified protein.
Design: species or system human

| Molecule | Total |
| --- | --- |
| B1 | 2 |
| B2 | 2 |
| B3 | 2 |
| B4 | 2 |
| B5 | 2 |
| B6 | 2 |
| B7 | 2 |
| B8 | 2 |
| B9 | 2 |

Same assay, conditions: HA-SS18SSX1_CHR_peptides; unique peptides of the identified protein

| Molecule | Unique |
| --- | --- |
| B1 | 2 |
| B2 | 2 |
| B3 | 2 |
| B4 | 2 |
| B5 | 2 |
| B6 | 2 |
| B7 | 2 |
| B8 | 2 |
| B9 | 2 |

Same assay, conditions: HA-SS18SSX1_NE_peptides: protein co-purified with HA-SS18-SSX1 BAF complexes from soluble nuclear extract (NE), HEK-293T cells

| Molecule | Total (peptides) | Unique (peptides) |
| --- | --- | --- |
| B2 | 2 | 2 |
| B5 | 2 | 2 |
| B9 | 2 | 1 |

Same assay, conditions: HA-SS18SSX1 purification, NE (soluble nuclear extract) fraction, HEK-293T; peptides per identified protein

| Molecule | Total (total peptides) | Unique (unique peptides) |
| --- | --- | --- |
| B6 | 4 | 4 |

Same assay, conditions: HA-SS18WT_CHR_peptides: protein identified in HA-SS18 WT BAF complex purification from nuclease-treated solubilized chromatin (CHR), HEK-293T

| Molecule | Total (total peptides) | Unique (unique peptides) |
| --- | --- | --- |
| B1 | 1 | 1 |
| B2 | 2 | 2 |
| B3 | 1 | 1 |
| B4 | 1 | 1 |
| B6 | 1 | 1 |
| B7 | 2 | 2 |
| B9 | 1 | 1 |

Same assay, conditions: HA-SS18WT_NE_peptides: HA-SS18 WT complexes purified from nuclear extract (NE), HEK-293T; label = protein identified (Gene Symbol)

| Molecule | Total (peptides) | Unique (peptides) |
| --- | --- | --- |
| B6 | 5 | 5 |

Same assay, conditions: HA-SS18WT_NE_peptides: proteins co-purified with HA-SS18 WT from nuclear extract (NE), HEK-293T

| Molecule | Total (peptides) | Unique (peptides) |
| --- | --- | --- |
| B5 | 2 | 2 |
| B9 | 2 | 2 |
